The target of the assay is GST-HSP90 N-domain. In words: pull-down; GST-PDPK1 domains or GST-HSP90 domains from bacterial lysates on glutathione-Sepharose 4B beads, incubated with cell lysates containing LRRC4; eluted and run on a gel; only the target purified.

No constants are given. Whether binding was seen depends on the method and setting. Binding seen in cells or lysates may run through a third protein. Binding can be weak; no strength is given.

B1: Leucine-rich repeat (LRR) C4 protein (protein, UniProt Q9HBW1 39-653)
chain: ASAGPQNCPSVCSCSNQFSKVVCTRRGLSEVPQGIPSNTRYLNLMENNIQMIQADTFRHLHHLEVLQLGRNSIRQIEVGAFNGLASLNTLELFDNWLTVIPSGAFEYLSKLRELWLRNNPIESIPSYAFNRVPSLMRLDLGELKKLEYISEGAFEGLFNLKYLNLGMCNIKDMPNLTPLVGLEELEMSGNHFPEIRPGSFHGLSSLKKLWVMNSQVSLIERNAFDGLASLVELNLAHNNLSSLPHDLFTPLRYLVELHLHHNPWNCDCDILWLAWWLREYIPTNSTCCGRCHAPMHMRGRYLVEVDQASFQCSAPFIMDAPRDLNISEGRMAELKCRTPPMSSVKWLLPNGTVLSHASRHPRISVLNDGTLNFSHVLLSDTGVYTCMVTNVAGNSNASAYLNVSTAELNTSNYSFFTTVTVETTEISPEDTTRKYKPVPTTSTGYQPAYTTSTTVLIQTTRVPKQVAVPATDTTDKMQTSLDEVMKTTKIIIGCFVAVTLLAAAMLIVFYKLRKRHQQRSTVTAARTVEIIQVDEDIPAATSAAATAAPSGVSGEGAVVLPTIHDHINYNTYKPAHGAHWTENSLGNSLHPTVTTISEPYIIQTHTKDKVQETQI
In the case of B1, the binding entry is given as “binds”.
